The text below walks through data of article PMC2816717, “Active Fragments from Pro- and Antiapoptotic BCL-2 Proteins Have Distinct Membrane Behavior Reflecting Their Functional Divergence” (PLoS ONE, 2010).

Data set [1] in a line: Brewster Angle Microscopy of peptide-monolayer complexes. It is filed as physicochemical. The conditions noted are these: BAM, POPC/DOPE mixture, at πmax.
Data set [2] can be described thus: Brewster Angle Microscopy of peptide-monolayer complexes, lipid mixture not singled out. It is filed as physicochemical. The conditions noted are these: BAM, calculated from reflectance values.

Turning to “WGRVVALFYFASKLVLKALSTK [BAX-α5S, short peptide of the first helix (α5) of the central hairpin of BAX]”, the “height of the condensed domains” value in data set [1] was 2.54±0.31 nm.
Take NWGRVVALFYFASKLVLKALSTKVPELIR [BAX-α5M]: the “height of the condensed domains” value in data set [1] was found to be 1.99±0.24 nm.
As for “ELIRTIMGWTLDFLRERLLVWIQD [BAX-α6, second helix (α6) of the central hairpin of BAX]”, in data set [2], the “difference in height between dark area of the holes and peripheral rims” value was 1.07±0.19 nm; the “difference in height between rims and surrounding monolayer” value was 0.49±0.2 nm.
Turning to “RDGVNWGRIVAFFSFGGALSVESVDKEMQVLVSR [BCLX-α5L, long version of helix α5 of BCL-xL]”, the “height of the condensed domains” value in data set [1] is reported as 1.32±0.16 nm.
With “NWGVVKALFYFASVLRLKALSTKVPELIR [BAX-α5MS]”, the “height of the condensed domains” value in data set [1] stood at 1.04±0.13 nm.
